Here are results for five molecules from paper PMC4109901, “Functional EF-Hands in Neuronal Calcium Sensor GCAP2 Determine Its Phosphorylation State and Subcellular Distribution In Vivo, and Are Essential for Photoreceptor Cell Integrity” (PLoS Genetics, 2014).

Amino acid sequences for entries named in this document (tags omitted). A change or cut given only in a name is not applied to a line headed by its entry.
UniProt P62259: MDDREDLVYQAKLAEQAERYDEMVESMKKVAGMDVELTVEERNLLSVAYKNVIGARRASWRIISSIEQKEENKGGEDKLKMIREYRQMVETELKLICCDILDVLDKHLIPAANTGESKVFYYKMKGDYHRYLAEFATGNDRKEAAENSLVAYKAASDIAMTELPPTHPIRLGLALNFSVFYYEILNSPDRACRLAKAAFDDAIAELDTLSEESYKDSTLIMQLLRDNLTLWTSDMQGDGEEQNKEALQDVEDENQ
UniProt P63101: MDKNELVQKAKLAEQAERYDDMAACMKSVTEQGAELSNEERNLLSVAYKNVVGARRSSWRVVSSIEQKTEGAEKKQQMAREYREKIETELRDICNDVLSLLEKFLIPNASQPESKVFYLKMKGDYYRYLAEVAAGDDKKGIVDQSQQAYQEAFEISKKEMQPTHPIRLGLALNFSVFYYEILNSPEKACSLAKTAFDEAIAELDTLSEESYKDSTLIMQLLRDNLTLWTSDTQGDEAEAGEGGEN

Where two headings read alike, the source gives them in different places. No constants are given. Whether binding was seen depends on the method and setting. In cells and extracts the contact can be indirect. Here binding means that the protein was enriched with, or labelled near, the bait; the list need not be complete.

Test in all cases: affinity purification with mass spectrometry; anti-GCAP2 mAb2235 cross-linked to magnetic beads; forty retinas per phenotype in HEPES buffer pH 8.0, 135 mM NaCl, 4 mM EGTA, 1 mM NaF, 1% Triton-X100; 45 min at room temperature; elution at pH 2.5; LC-MS/MS; GCAPs−/− retinas as background
In assay [1] the target is T1, bEF^−GCAP2, bovine GCAP2(E80Q/E116Q/D158N), transgene product in mouse rods (bovine) (UniProt P51177).
T1 sequence (chain, phosphorylated to high levels in vivo (Ser201)): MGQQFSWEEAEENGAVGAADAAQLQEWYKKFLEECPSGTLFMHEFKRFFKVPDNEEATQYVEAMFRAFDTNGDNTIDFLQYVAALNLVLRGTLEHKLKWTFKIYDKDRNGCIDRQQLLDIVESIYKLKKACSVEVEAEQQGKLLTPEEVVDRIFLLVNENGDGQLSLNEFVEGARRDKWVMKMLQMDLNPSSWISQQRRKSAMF

Assay [2] deals with T2, bGCAP2, wildtype bovine GCAP2, transgene product in mouse rods (bovine) (UniProt P51177).
T2 sequence (chain, phosphorylated to low levels in vivo): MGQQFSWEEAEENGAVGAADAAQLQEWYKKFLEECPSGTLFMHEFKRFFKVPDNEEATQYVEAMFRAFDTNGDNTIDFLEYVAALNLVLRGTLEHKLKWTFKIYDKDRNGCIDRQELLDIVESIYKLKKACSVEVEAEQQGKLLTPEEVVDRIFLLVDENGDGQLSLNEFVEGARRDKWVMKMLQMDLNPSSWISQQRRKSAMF

The target of assay [3] is T1, bEF^−GCAP2, bovine GCAP2(E80Q/E116Q/D158N), transgene product in mouse rods (bovine). This is another data set of the same source.
Assay [4] has as its target T2, bGCAP2, wildtype bovine GCAP2, transgene product in mouse rods (bovine). The source holds these as a separate data set.

Turning to “14-3-3 protein ε (mouse) (from UniProt P62259 1-255)”, the binding result in assay [1] and in assay [2] was “binds” in each case.
As for “14-3-3 protein ζ/δ (mouse) (from UniProt P63101 1-245)”, the binding entry in assay [1] and in assay [2] was “binds” each time.

B1: 14-3-3 protein β/α (mouse) (protein, UniProt Q9CQV8 1-246)
chain: MTMDKSELVQKAKLAEQAERYDDMAAAMKAVTEQGHELSNEERNLLSVAYKNVVGARRSSWRVISSIEQKTERNEKKQQMGKEYREKIEAELQDICNDVLELLDKYLILNATQAESKVFYLKMKGDYFRYLSEVASGENKQTTVSNSQQAYQEAFEISKKEMQPTHPIRLGLALNFSVFYYEILNSPEKACSLAKTAFDEAIAELDTLNEESYKDSTLIMQLLRDNLTLWTSENQGDEGDAGEGEN
With B1, the binding entry in assay [3] and in assay [4] was “binds” in each case.

B2: 14-3-3 protein γ (mouse) (protein, UniProt P61982 1-247)
chain: MVDREQLVQKARLAEQAERYDDMAAAMKNVTELNEPLSNEERNLLSVAYKNVVGARRSSWRVISSIEQKTSADGNEKKIEMVRAYREKIEKELEAVCQDVLSLLDNYLIKNCSETQYESKVFYLKMKGDYYRYLAEVATGEKRATVVESSEKAYSEAHEISKEHMQPTHPIRLGLALNYSVFYYEIQNAPEQACHLAKTAFDDAIAELDTLNEDSYKDSTLIMQLLRDNLTLWTSDQQDDDGGEGNN
B2: the binding entry in assay [3] and in assay [4] was “binds” throughout.

B3: 14-3-3 protein τ (mouse) (protein, UniProt P68254 1-245)
chain: MEKTELIQKAKLAEQAERYDDMATCMKAVTEQGAELSNEERNLLSVAYKNVVGGRRSAWRVISSIEQKTDTSDKKLQLIKDYREKVESELRSICTTVLELLDKYLIANATNPESKVFYLKMKGDYFRYLAEVACGDDRKQTIENSQGAYQEAFDISKKEMQPTHPIRLGLALNFSVFYYEILNNPELACTLAKTAFDEAIAELDTLNEDSYKDSTLIMQLLRDNLTLWTSDSAGEECDAAEGAEN
Consider B3, for which the binding result in assay [3] and in assay [4] was “binds” in each case.
